No constants are given. Whether binding was seen depends on the method and setting. Some binding calls cover weakened binding; strength is not graded here.
T1: 1-27 CD3-EpCAM comprising the tamarin 27 mer (Saguinus oedipus; cynomolgus)
T1 sequence: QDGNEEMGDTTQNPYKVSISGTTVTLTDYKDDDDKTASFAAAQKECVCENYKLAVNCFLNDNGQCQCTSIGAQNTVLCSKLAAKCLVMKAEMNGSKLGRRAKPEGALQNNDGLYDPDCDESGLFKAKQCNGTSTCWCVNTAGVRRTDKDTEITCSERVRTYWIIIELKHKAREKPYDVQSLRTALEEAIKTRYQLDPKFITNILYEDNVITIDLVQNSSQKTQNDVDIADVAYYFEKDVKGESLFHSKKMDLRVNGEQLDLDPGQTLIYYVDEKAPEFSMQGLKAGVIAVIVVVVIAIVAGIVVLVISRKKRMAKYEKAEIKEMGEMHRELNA

B1: ME06F2HL (scFv)
scFv: EVQLLEQSGAELMKPGASVKISCKATGYTFSNYWIGWVKQRPGHGLEWIGDIYPGGSYTNYNEKFKGKVTLTADTSSRTAYMQLSSLTFEDSAIYYCARSGYDYASDYDYHGMDYWGQGTTVTVSSGGGGSGGGGSGGGGSELVLTQSPSSMSASLGDRITITCQATQDIVKNLNWYQQKPGKPPSFLIYYATELAEGVPSRFSGSGSGSDYSLTISNLESEDFADYYCLQFYEFPYTFGGGTKLEIK
B2: ME06E10HL (scFv)
scFv: EVQLLEQSGADLVRPGTSVKLSCKAAGYTFSRYWISWIRQRPGHGLEWIGEIYPGGGYGNYNENFKDKVTLTADTSSSTAYMQLSSLTSEDSAIYYCARSGYDYGSKYDYYGLDYWGQGTTVTVSSGGGGSGGGGSGGGGSELVMTQSPSSLSASLGERVSLTCRASQEISGYLSWLQQKPDGTIKRLIYAASTLDSGVPKRFSGSRSGSDYSLTISSLESEDFADYYCLQYASSPYTFGGGTKLEIK
B3: ME06D2HL (scFv)
scFv: EVQLLEQSGADLVRPGTSVKLSCKAAGYTFSRYWISWIRQRPGHGLEWIGEIYPGGGYGNYNENFKDKVTLTADTSSSTAYMQLSSLTSEDSAIYYCARSGYDYGSKYDYYGLDYWGQGTTVTVSSGGGGSGGGGSGGGGSELVMTQSPSSMYASLGERVTITCKASQDINSYLSWFQQKPGKSPKTLIYRANRLVDGVPSRFSGSGSGQDYSLTISSLEYEDMGIYYCLQYDAFPPTFGAGTKLEIK
B4: ME06D1HL (scFv)
scFv: EVQLLEQSGAEVVRPGTSVKMSCKAAGYTFTKYWIGWVKQRPGHGLEWIGDIHPGGGFANYNEKFKGKATLTADTSSSTAYMQLSRLTSDDSAIYYCARSGYDYGSSYDYHGMDYWGQGTTVTVSSGGGGSGGGGSGGGGSELVMTQSPSSLTVTAGEKVTMSCKSSQSLLNSGNQKNYLAWYQQKPGQPPKLLIYGASTRESGVPDRFTGSGSGTDFTLTISSVQAEDLADYFCQQHYSTPYTFGGGTKLEIK
B5: ME06C7HL (scFv)
scFv: EVQLLEQSGAEVVRPGTSVKMSCKAAGYTFTKYWIGWVKQRPGHGLEWIGDIHPGGGFANYNEKFKGKATLTADTSSSTAYMQLSRLTSDDSAIYYCARSGYDYGSSYDYHGMDYWGQGTTVTVSSGGGGSGGGGSGGGGSELQMTQSPTSLAVSLGQRATISCRASQTVYYDGNNYMNWYQHKPGQPPKLLIYATSNLESGIPARFSGSGSGTDFTLNIHPVEAEDAATYYCQQSYEDPYTFGGGTKLEIK
B6: ME06C6HL (scFv)
scFv: EVQLLEQSGAELVRPGTSVKIPCKATGYTFSYYWIGWVKQRPGHGLEWIGDIYPGGGYSNYNEKFKGKATLTADTSSSTAYMQLSGLTSEDSAIYYCARSGYDYGSDYDYHGLDYWGQGTTVTVSSGGGGSGGGGSGGGGSELVLTQSPASLAVSLGQRATISCRASESVEYYGTSLMQWYQQKPGQPPKLLIYAASNVESGVPARFSGSGSGTDFSLNIHPVEEDDIAMYFCQQSRKVPYTFGGGTKLEIK
B7: ME06B7HL (scFv)
scFv: EVQLLEQSGAELVRPGTSVKISCKATGYTFTTYWLGWVKQRPGHGLEWIGEIHPGGGYTNYNEKFKGKATLTADTSSSTAYMQLSRLTSDDSAIYYCARSGYDYGSSYDYYGMDYWGQGTTVTVSSGGGGSGGGGSGGGGSELVMTQSPSSLSASLGERVSLTCRASQDIGSSLNWLQQEPDGTIKRLIYATSSLDSGVPKRFSGSRSGSDYSLTISSLESEDFVDYYCLQYASSPYTFGGGTKLEIK
B8: ME05F6HL (scFv)
scFv: EVQLLEQSGAEVVRPGTSVKMSCKAAGYTFTKYWIGWVKQRPGHGLEWIGDIHPGGGFANYNEKFKGKATLTADTSSSTAYMQLSRLTSDDSAIYYCARSGYDYGSSYDYHGMDYWGQGTTVTVSSGGGGSGGGGSGGGGSELVMTQSPSSLSASLGERVSLTCRASQEISGYLSWLQQKPDGTIKRLIYAASTLDSGVPKRFSGSRSGSDYSLTISSLESEDFADYYCLQYASYPPTFGGGTKLEIK
B9: ME05D7HL (scFv)
scFv: EVQLLEQSGAELVRPGTSVKVSCKASGYAFTHYLIEWVKQRPGQGLEWIGMINPENTDTTYNEKFRDKAILTVDKSSNTAYMQLSSLTSDDSAVYFCARQEITSDFDFWGQGTTVTVSSGGGGSGGGGSGGGGSELVLTQSPTTMAASPGEKITITCSASSSISSNYLHWYQQKPGFSPKLLIYRTSNLASGVPARFSGSGSGTSYSLTIGTMEAEDVATYYCQQGSSIPYTFGGGTKLEIK
B10: ME05B7HL (scFv)
scFv: EVQLLEQSGAELVRPGTSVKISCKTTGYTFGYYWISWLKQRPGHGLEWIGDIYPGGGYTNYHEKFKGKVTLTADTSSRTAYMQLSSLTFEDSAIYYCARSGYDYGSDYDYHGMDYWGQGTTVTVSSGGGGSGGGGSGGGGSELVMTQTPSSLSASLGDRVTISCRASQGISNYLNWYQQKPDGSVKLLIYYTSRLHSGVPSRFSGSGSGTDYSLTISNLDQEDIATYFCQQGNTLPWTFGGGTKLEIK
B11: ME99B1HL (scFv)
scFv: EVQLLEQSGAELVRPGTSVKISCKATGYTFSNYWISWVKYRPGHGLEWIGDIYPGGSYTNYNEKFKGKVTLTADTSSRTAYMQLSGLTFEDSAIYYCARSGYDYGSDYDYHGMDYWGQGTTVTVSSGGGGSGGGGSGGGGSELQMTQSPASLSASVGETVTITCRASENIYSNLAWYQQKQGKSPQLLVYAATNLADGVPSRFSGSRSGSDYSLTISSLESEDFVDYYCLQYASYPYTFGGGTKLEIK
B12: ME75H6HL (scFv)
scFv: EVQLLEQSGAELVRPGTSVKMSCKAAGYTFTKYWIGWVKQRPGHGLEWIGDIHPGGGYANYNEKFKGKATLTADTSSSTAYMQLSRLTSDDSAIYYCARSGYDYGSSYDYHGMDFWGQGTTVTVSSGGGGSGGGGSGGGGSELQMTQSPASLSASVGEPVTFTCRASENIYSYLAWYQQKQGKSPQLLIYGATNLADGMSSRFSGSGSGRQYSLKISSLHPDDVATYYCQNVLSTPYTFGGGTKLEIK
B13: E2M HLP (scFv)
scFv: EVQLLESGGGLVQPGGSLKLSCAASGFTFNGYAMNWVRQAPGKGLEWVARIRSKYNNYATYYADSVKERFTISRDDSKNTAYLQMNNLKTEDTAVYYCVRHRNFGNSYLSWFAYWGQGTLVTVSSGGGGSGGGGSGGGGSELVVTQEPSLTVSPGGTVTLTCRSSTGAVTSGYYPNWVQQKPGQAPRGLIGATDMRPSGTPARFSGSLLGGKAALTLSGVQPEDEAEYYCALWYSNRWVFGGGTKLTVL

Molecular target: human cMET extracellular domain fused to truncated human EpCAM (on CHO cells, Example 27.1) (human) (UniProt P08581)
Experiment: FACS on CHO cells

binding, binds:
B1, B2, B3, B4, B5, B6, B7, B8, B9, B10, B11, B12

Molecular target: T1, 1-27 CD3-EpCAM comprising the tamarin 27 mer (Saguinus oedipus; cynomolgus)
Experiment: FACS on transfected 293-HEK cells

binding, binds:
B13

— patent US20120034228A1
